Test results taken from patent publication US20210169936A1 (AFFIMED, published 2021).

B1: scFv CD16A (CD16-2) (scFv)
scFv: QVQLVQSGAEVKKPGESLKVSCKASGYTFTSYYMHWVRQAPGQGLEWMGAIEPMYGSTSYAQKFQGRVTMTRDTSTSTVYMELSSLRSEDTAVYYCARGSAYYYDFADYWGQGTLVTVSSGGSGGSGGSGGSGGSGGSSYVLTQPSSVSVAPGQTATISCGGHNIGSKNVHWYQQRPGQSPVLVIYQDNKRPSGIPERFSGSNSGNTATLTISGTQAMDEADYYCQVWDNYSVLFGGGTKLTVLAAAGSHHHHHH
notes: also called CD16-2 scFv
B2: EGFR-1 scFv (scFv)
scFv: QVQLQESGPGLVKPSETLSLTCTVSGGSVSSGSYYWSWIRQPPGKGLEWIGYIYYSGSTNYNPSLKSRVTISVDTSKNQFSLKLSSVTAADTAVYYCARNPISIPAFDIWGQGTMVTVSSGGSGGSGGSGGSGGSGGSQPVLTQPPSVSVAPGKTARITCGGNNIGSKSVHWYQQKPGQAPVLVIYYDSDRPSGIPERFSGSNSGNTATLTISRVEAGDEADYYCQVWDTSSDHVLFGGGTKLTVLAAAGSHHHHHH
notes: also called scFv EGFR (EGFR-1); control scFv

Target: huCD16B (NA1)mat, GPI anchored (human)
Experiment: flow cytometry, MFI in cell binding to recombinant CHO cells; antigen GPI anchored

| Binder | binding |
| --- | --- |
| B1 | no binding |
| B2 | no binding |

These are yes or no findings as the source states them, for the method shown.
